Literature values, collected in patent publication EP1143970B1, “PYRIDINE COMPOUNDS, USE AND PREPARATION THEREOF” (priority 1999, dated 2000).
At least one read-out could not be matched to a standard name with certainty.

Settings: dogs; cited from earlier work

COc1nc(C(Cl)(Cl)Cl)c(Cl)c(OC)c1Cl [PEN, 3,5-dichloro-2,4-dimethoxy-6-(trichloromethyl)pyridine]
plasma penclomedine levels associated with severe emesis and seizures: above 30 µM
